PubChem BioAssay AID1224828, NIAID | 2016
Screen: 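Regulators linking TLR4 signalling to p65 nuclear translocation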 (primary screen). Cells: mouse RAW264.7 G9 macrophage reporter cells (GFP-p65, Tnf promoter-mCherry). Knock-down reagent: siRNA pool against mouse genes, 100 nM. Duration: 2 days siRNA transfection, then 40 min LPS before fixation. Challenge: LPS (Salmonella minnesota R595) at 10 ng/ml. Read-out: 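Imaged p65 nuclear translocation ratio, normalised to the plate median, converted to robust z-scores and averaged across two replicates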. Reading the numbers: p65 translocation robust z-score: higher = more nuclear NF-kappaB p65 after LPS than the plate median; nuclear/cytoplasmic p65 ratio: higher = more nuclear NF-kappaB p65. Hit rule: 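Called active when z exceeds 3.3 or falls under -1.56 (median of Tlr4 controls), giving activity score of at least 50; no calls for control wells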. Calls: active = hit (p65 shift raised or lowered); inactive = no clear change.
The deposit covers about 17,000 reagents; below is a random part of them. In the full data, 762 (4.5%) got an active call. 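Active calls include both raised and lowered p65 entry, mostly lowered; wells with fewer than 50 cells lack a z-score.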 The raw values are shown without normalisation. Reagents against one gene are numbered here. No sequences are given here.

| Gene | reagent no. | p65 translocation robust z-score | nuclear/cytoplasmic p65 ratio, rep 1 | nuclear/cytoplasmic p65 ratio, rep 2 | low cell count flag | Outcome |
| --- | --- | --- | --- | --- | --- | --- |
| Vipr1 (vasoactive intestinal peptide receptor 1) | 1 | -1.26 | 1.33 | 1.41 | enough cells to score | inactive |
| Cyc1 (cytochrome c-1) | 1 | 1.15 | 1.67 | 1.5 | enough cells to score | inactive |
| Adam4 (a disintegrin and metallopeptidase domain 4) | 1 | 1.52 | 1.68 | 2.08 | enough cells to score | inactive |
| Tpsb2 (tryptase beta 2) | 1 | -0.22 | 1.73 | 1.48 | enough cells to score | inactive |
| Or9a7 (olfactory receptor family 9 subfamily A member 7) | 1 | 0.63 | 1.52 | 1.35 | enough cells to score | inactive |
| Sox13 (SRY (sex determining region Y)-box 13) | 1 | -0.79 | 1.3 | 1.15 | enough cells to score | inactive |
| Or2ah1 (olfactory receptor family 2 subfamily AH member 1) | 1 | 1.91 | 1.85 | 1.95 | enough cells to score | inactive |
| Dusp19 (dual specificity phosphatase 19) | 1 | -2.08 | 1.12 | 1.18 | enough cells to score | active |
| Gpr176 (G protein-coupled receptor 176) | 1 | 0.42 | 1.6 | 1.61 | enough cells to score | inactive |
| Igf1 (insulin-like growth factor 1) | 1 | 0.26 | 1.43 | 1.44 | enough cells to score | inactive |
| Fgf3 (fibroblast growth factor 3) | 1 | -0.43 | 1.39 | 1.3 | enough cells to score | inactive |
| Htr3a (5-hydroxytryptamine (serotonin) receptor 3A) | 1 | – | 1.39 | 1.58 | fewer than 50 cells per well; well left out of scoring | inactive |
| Zmat3 (zinc finger matrin type 3) | 1 | -0.59 | 1.57 | 1.38 | enough cells to score | inactive |
| Ribc1 (RIB43A domain with coiled-coils 1) | 1 | -0.98 | 1.2 | 1.4 | enough cells to score | inactive |
| Arhgef39 (Rho guanine nucleotide exchange factor 39) | 1 | -0.88 | 1.43 | 1.2 | enough cells to score | inactive |
| Neo1 (neogenin) | 1 | -0.29 | 1.39 | 1.32 | enough cells to score | inactive |
| Ube2k (ubiquitin-conjugating enzyme E2K) | 1 | 1.21 | 1.41 | 1.54 | enough cells to score | inactive |
| Pnn (pinin) | 1 | -0.88 | 1.35 | 1.32 | enough cells to score | inactive |
| Traf3 (TNF receptor-associated factor 3) | 1 | 0.61 | 1.54 | 1.64 | enough cells to score | inactive |
| Fam53a (family with sequence similarity 53, member A) | 1 | -1.73 | 1.1 | 1.27 | enough cells to score | active |
| Dyrk4 (dual-specificity tyrosine phosphorylation regulated kinase 4) | 1 | -0.23 | 1.77 | 1.26 | enough cells to score | inactive |
| Chd9 (chromodomain helicase DNA binding protein 9) | 1 | 0.52 | 1.63 | 1.75 | enough cells to score | inactive |
| Osbpl1a (oxysterol binding protein-like 1A) | 1 | -0.31 | 1.4 | 1.38 | enough cells to score | inactive |
| Osbpl1a (oxysterol binding protein-like 1A) | 2 | 0.42 | 1.65 | 1.52 | enough cells to score | inactive |
| Cdh8 (cadherin 8) | 1 | -0.52 | 1.37 | 1.33 | enough cells to score | inactive |
| Fbxw4 (F-box and WD-40 domain protein 4) | 1 | -0.17 | 1.37 | 1.41 | enough cells to score | inactive |
| Commd1 (COMM domain containing 1) | 1 | 0.37 | 1.5 | 1.98 | enough cells to score | inactive |
| Lgi3 (leucine-rich repeat LGI family, member 3) | 1 | 1.37 | 1.96 | 1.72 | enough cells to score | inactive |
| Itpkb (inositol 1,4,5-trisphosphate 3-kinase B) | 1 | 0.65 | 1.53 | 1.46 | enough cells to score | inactive |
| Melk (maternal embryonic leucine zipper kinase) | 1 | 0.38 | 1.57 | 1.56 | enough cells to score | inactive |
| Mab21l4 (mab-21-like 4) | 1 | – | 1.45 | 1.55 | fewer than 50 cells per well; well left out of scoring | inactive |
| Umod (uromodulin) | 1 | – | 1.24 | 1.21 | fewer than 50 cells per well; well left out of scoring | inactive |
| Acss3 (acyl-CoA synthetase short-chain family member 3) | 1 | – | 1.58 | 1.77 | fewer than 50 cells per well; well left out of scoring | inactive |
| Ccn2 (cellular communication network factor 2) | 1 | -0.56 | 1.41 | 1.3 | enough cells to score | inactive |
| Stab2 (stabilin 2) | 1 | 2.92 | 1.84 | 1.53 | enough cells to score | inactive |
| Ccs (copper chaperone for superoxide dismutase) | 1 | -0.67 | 1.21 | 1.29 | enough cells to score | inactive |
| Oxct2b (3-oxoacid CoA transferase 2B) | 1 | 0.76 | 1.5 | 1.36 | enough cells to score | inactive |
| Psma5 (proteasome subunit alpha 5) | 1 | – | 1.13 | 0.951 | fewer than 50 cells per well; well left out of scoring | inactive |
| Eppin (epididymal peptidase inhibitor) | 1 | 1.05 | 1.5 | 1.4 | enough cells to score | inactive |
| Ndufb2 (NADH:ubiquinone oxidoreductase subunit B2) | 1 | -0.01 | 1.74 | 1.63 | enough cells to score | inactive |
| Enoph1 (enolase-phosphatase 1) | 1 | -0.33 | 1.55 | 1.58 | enough cells to score | inactive |
| Apoa1 (apolipoprotein A-I) | 1 | -0.19 | 1.64 | 1.54 | enough cells to score | inactive |
| Pold3 (polymerase (DNA-directed), delta 3, accessory subunit) | 1 | -1.25 | 1.22 | 1.08 | enough cells to score | inactive |
| Pabpc1 (poly(A) binding protein, cytoplasmic 1) | 1 | 0.98 | 1.57 | 1.41 | enough cells to score | inactive |
| Ecpas (Ecm29 proteasome adaptor and scaffold) | 1 | 0.78 | 1.62 | 1.91 | enough cells to score | inactive |
| Srsf19 (serine and arginine rich splicing factor 19) | 1 | – | 1.24 | 1.15 | fewer than 50 cells per well; well left out of scoring | inactive |
| Il19 (interleukin 19) | 1 | 0.99 | 1.57 | 1.55 | enough cells to score | inactive |
| Ndor1 (NADPH dependent diflavin oxidoreductase 1) | 1 | -1.85 | 1.51 | 1.29 | enough cells to score | active |
| Snrk (SNF related kinase) | 1 | -0.39 | 1.53 | 1.33 | enough cells to score | inactive |
| Carns1 (carnosine synthase 1) | 1 | -1.2 | 1.46 | 1.46 | enough cells to score | inactive |
| Cyp4f16 (cytochrome P450, family 4, subfamily f, polypeptide 16) | 1 | -0.29 | 1.55 | 1.72 | enough cells to score | inactive |
| Gpatch2 (G patch domain containing 2) | 1 | -0.3 | 1.55 | 1.54 | enough cells to score | inactive |
| Cacnb3 (calcium channel, voltage-dependent, beta 3 subunit) | 1 | -0.37 | 1.67 | 1.58 | enough cells to score | inactive |
| Unc5d (unc-5 netrin receptor D) | 1 | -0.42 | 1.31 | 1.2 | enough cells to score | inactive |
| Ubash3b (ubiquitin associated and SH3 domain containing, B) | 1 | – | 1.08 | 1.15 | fewer than 50 cells per well; well left out of scoring | inactive |
| Arhgap35 (Rho GTPase activating protein 35) | 1 | 2.62 | 1.69 | 2.01 | enough cells to score | inactive |
| Vdr (vitamin D (1,25-dihydroxyvitamin D3) receptor) | 1 | 0.65 | 1.63 | 1.57 | enough cells to score | inactive |
| Sap18 (Sin3A-associated polypeptide 18) | 1 | -0.47 | 1.47 | 1.44 | enough cells to score | inactive |
| En2 (engrailed 2) | 1 | -0.17 | 1.48 | 1.32 | enough cells to score | inactive |

Entries listed above called active, once more:
| Gene | reagent no. | p65 translocation robust z-score | nuclear/cytoplasmic p65 ratio, rep 1 | nuclear/cytoplasmic p65 ratio, rep 2 | low cell count flag | Outcome |
| --- | --- | --- | --- | --- | --- | --- |
| Dusp19 (dual specificity phosphatase 19) | 1 | -2.08 | 1.12 | 1.18 | enough cells to score | active |
| Fam53a (family with sequence similarity 53, member A) | 1 | -1.73 | 1.1 | 1.27 | enough cells to score | active |
| Ndor1 (NADPH dependent diflavin oxidoreductase 1) | 1 | -1.85 | 1.51 | 1.29 | enough cells to score | active |
